This note sets out measurements from the supplement of paper PMC12819154, “High-throughput peptide-centric local stability assay extends protein–ligand identification to membrane proteins, tissues and bacteria” (Nature Structural & Molecular Biology, 2025).

The chains behind the UniProt entries cited, without tags or fusion partners. Where a name states a change or a piece, a line headed by the entry shows the natural chain unless it says otherwise.
UniProt Q15050: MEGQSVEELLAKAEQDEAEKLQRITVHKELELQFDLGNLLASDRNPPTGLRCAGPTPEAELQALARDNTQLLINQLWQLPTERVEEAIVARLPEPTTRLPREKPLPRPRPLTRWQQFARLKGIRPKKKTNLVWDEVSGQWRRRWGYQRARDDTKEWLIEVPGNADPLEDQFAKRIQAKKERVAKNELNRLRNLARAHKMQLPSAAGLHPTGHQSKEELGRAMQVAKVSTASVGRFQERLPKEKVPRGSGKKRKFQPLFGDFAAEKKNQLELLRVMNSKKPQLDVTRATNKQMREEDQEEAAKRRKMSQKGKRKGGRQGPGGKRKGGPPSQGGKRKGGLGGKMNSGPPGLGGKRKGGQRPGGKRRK
UniProt Q16143, whole entry: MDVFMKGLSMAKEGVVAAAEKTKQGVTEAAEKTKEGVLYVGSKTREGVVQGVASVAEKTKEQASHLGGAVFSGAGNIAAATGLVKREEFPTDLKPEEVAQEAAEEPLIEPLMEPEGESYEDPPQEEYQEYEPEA
UniProt Q15406: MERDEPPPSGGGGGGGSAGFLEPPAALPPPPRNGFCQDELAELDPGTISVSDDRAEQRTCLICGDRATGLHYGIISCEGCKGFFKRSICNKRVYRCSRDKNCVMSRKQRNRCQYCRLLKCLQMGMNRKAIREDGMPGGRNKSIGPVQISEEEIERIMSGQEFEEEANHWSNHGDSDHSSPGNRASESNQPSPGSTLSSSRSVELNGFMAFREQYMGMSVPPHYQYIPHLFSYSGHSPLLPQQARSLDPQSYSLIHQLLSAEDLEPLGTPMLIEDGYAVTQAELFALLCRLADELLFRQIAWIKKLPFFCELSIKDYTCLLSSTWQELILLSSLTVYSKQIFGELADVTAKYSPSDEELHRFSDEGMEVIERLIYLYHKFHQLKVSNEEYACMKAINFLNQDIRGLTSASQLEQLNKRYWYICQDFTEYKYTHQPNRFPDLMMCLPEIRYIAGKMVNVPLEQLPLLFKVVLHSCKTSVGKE
UniProt Q3L8U1: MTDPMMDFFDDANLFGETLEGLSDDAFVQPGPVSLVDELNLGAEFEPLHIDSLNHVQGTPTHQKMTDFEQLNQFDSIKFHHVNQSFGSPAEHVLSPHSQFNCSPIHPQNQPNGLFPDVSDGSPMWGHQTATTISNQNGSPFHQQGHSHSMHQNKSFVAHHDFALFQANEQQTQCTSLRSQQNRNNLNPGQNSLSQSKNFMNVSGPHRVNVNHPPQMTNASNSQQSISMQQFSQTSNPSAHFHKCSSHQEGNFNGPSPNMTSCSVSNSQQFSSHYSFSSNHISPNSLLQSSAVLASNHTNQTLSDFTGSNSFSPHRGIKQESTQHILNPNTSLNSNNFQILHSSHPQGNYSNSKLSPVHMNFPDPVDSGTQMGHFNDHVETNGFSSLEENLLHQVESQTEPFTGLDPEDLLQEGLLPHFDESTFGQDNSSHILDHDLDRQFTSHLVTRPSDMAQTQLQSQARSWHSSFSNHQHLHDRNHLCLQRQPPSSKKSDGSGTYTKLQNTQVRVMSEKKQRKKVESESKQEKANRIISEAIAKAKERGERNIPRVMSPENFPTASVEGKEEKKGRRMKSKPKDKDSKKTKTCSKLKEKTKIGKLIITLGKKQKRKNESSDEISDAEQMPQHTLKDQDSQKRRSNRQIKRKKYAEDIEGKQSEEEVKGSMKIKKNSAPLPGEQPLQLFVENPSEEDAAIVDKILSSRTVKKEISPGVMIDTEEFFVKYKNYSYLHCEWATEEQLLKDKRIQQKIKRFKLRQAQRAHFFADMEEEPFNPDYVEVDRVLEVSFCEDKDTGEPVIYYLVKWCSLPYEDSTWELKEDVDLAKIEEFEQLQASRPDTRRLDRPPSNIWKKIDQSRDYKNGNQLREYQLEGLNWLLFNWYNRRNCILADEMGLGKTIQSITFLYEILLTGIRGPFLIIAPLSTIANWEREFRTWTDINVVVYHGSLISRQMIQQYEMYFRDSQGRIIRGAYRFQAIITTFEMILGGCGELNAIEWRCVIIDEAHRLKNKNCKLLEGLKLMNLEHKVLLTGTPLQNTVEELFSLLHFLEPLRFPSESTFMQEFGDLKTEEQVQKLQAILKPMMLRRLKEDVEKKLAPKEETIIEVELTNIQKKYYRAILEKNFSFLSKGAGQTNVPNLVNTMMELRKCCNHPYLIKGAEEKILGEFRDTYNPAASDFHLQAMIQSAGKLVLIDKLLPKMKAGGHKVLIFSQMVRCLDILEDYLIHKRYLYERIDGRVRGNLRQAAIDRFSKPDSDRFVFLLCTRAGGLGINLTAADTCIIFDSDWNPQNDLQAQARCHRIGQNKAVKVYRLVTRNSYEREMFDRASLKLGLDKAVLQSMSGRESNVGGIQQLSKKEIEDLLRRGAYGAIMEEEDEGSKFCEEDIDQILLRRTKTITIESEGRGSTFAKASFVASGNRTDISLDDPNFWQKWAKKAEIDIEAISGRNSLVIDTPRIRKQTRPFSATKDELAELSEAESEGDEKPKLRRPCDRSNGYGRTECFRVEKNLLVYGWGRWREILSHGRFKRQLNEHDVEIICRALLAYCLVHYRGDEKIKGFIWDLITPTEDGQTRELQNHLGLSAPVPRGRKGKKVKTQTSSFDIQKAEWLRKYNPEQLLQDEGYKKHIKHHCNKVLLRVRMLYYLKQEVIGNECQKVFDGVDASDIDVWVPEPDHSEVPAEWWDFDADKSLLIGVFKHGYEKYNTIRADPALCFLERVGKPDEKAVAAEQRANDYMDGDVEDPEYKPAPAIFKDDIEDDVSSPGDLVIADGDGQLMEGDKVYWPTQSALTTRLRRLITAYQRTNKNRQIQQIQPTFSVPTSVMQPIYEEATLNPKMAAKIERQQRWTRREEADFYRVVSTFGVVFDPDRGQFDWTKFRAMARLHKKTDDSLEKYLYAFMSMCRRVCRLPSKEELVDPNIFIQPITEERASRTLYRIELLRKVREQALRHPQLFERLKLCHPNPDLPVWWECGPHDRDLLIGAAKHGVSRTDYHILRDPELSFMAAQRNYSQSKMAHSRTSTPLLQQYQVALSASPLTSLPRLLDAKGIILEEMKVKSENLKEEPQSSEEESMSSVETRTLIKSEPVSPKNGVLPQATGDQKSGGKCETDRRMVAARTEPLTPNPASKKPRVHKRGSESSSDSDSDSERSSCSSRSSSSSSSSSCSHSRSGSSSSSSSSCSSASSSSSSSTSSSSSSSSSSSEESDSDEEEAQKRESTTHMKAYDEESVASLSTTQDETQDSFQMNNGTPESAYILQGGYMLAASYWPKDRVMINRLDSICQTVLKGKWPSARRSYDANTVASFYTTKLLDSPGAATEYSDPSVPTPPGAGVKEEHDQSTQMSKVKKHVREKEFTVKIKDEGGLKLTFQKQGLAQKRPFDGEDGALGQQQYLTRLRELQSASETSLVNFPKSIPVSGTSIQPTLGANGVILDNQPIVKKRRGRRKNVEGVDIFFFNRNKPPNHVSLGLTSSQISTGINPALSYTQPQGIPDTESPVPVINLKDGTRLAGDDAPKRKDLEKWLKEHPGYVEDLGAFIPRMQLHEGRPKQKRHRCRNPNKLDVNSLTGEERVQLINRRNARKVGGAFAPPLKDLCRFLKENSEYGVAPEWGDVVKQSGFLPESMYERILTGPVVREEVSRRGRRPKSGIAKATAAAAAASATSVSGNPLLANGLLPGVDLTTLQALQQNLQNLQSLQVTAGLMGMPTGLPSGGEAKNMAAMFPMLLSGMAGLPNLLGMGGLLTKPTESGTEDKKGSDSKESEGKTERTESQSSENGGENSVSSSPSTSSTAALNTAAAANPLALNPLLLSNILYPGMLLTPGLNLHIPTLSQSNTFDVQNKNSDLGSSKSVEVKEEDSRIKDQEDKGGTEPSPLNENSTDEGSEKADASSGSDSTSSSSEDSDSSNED
UniProt Q15067: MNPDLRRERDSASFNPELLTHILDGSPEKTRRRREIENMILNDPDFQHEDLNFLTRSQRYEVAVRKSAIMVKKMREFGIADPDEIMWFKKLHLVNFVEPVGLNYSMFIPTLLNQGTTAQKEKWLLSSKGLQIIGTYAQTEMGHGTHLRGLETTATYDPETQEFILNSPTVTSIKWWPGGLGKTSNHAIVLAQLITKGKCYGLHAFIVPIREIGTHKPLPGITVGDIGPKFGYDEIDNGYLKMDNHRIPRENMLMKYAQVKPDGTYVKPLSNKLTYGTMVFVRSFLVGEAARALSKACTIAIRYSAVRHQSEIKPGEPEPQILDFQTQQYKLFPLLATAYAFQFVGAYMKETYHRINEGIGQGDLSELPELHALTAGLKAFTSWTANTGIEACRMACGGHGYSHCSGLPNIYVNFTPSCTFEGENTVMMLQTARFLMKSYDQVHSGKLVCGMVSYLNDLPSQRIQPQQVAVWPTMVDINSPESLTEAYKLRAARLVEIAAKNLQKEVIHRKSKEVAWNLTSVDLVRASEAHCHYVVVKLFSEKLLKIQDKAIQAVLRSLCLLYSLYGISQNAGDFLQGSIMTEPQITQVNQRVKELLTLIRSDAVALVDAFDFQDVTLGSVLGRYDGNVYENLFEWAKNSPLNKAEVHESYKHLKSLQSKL
UniProt Q15022: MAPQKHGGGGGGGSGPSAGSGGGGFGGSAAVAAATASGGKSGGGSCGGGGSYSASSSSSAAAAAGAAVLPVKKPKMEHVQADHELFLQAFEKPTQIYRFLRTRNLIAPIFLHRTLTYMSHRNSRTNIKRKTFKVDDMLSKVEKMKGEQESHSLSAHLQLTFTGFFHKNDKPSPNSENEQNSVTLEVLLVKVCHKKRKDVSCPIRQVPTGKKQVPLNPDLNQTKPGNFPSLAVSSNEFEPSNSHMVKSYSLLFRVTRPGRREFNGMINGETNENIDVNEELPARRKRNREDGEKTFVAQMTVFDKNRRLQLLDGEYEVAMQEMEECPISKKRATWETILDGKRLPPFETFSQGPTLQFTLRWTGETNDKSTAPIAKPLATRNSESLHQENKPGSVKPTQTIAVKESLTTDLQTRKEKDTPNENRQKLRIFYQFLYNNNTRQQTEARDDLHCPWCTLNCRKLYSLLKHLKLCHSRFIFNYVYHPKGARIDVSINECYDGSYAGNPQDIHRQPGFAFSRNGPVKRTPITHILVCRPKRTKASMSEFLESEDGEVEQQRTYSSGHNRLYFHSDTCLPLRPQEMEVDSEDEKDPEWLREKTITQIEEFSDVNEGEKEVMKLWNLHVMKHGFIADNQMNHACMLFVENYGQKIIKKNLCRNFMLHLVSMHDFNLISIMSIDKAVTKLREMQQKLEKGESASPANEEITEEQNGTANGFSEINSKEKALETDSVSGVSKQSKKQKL
UniProt Q17R31: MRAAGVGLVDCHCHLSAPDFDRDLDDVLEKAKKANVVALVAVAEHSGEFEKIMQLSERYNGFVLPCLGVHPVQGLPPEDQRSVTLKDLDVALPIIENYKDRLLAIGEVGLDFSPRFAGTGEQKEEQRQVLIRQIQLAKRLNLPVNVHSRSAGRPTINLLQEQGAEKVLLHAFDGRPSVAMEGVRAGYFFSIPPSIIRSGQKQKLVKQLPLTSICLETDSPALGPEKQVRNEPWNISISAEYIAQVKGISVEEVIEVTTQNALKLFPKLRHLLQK
UniProt Q15269: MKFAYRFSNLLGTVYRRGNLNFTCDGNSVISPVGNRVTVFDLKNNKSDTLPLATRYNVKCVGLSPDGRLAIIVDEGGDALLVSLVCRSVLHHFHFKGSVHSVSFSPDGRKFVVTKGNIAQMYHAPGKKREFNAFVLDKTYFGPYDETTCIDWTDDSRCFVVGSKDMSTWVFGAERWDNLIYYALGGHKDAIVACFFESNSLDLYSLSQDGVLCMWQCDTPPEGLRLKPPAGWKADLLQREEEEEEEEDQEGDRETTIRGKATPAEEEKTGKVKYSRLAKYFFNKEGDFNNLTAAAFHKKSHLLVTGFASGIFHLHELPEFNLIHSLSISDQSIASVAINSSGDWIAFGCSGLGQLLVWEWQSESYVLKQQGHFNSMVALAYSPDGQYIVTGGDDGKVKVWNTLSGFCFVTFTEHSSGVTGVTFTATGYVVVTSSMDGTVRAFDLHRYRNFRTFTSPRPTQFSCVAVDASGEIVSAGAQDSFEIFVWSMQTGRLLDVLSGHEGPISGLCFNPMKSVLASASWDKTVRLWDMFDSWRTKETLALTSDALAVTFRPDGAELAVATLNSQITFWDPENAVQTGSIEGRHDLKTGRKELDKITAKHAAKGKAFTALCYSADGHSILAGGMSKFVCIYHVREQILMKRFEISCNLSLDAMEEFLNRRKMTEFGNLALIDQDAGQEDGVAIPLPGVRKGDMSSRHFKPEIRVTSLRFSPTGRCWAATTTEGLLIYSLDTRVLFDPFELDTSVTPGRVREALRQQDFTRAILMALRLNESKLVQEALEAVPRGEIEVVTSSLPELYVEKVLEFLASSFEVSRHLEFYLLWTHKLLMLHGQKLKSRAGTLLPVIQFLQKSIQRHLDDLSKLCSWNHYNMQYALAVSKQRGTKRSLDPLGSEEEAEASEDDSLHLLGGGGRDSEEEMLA

The other results are listed elsewhere or left out. Most values lie at the level of the controls, where differences are scatter.

Compound in this experiment: Cc1nc(Nc2ncc(C(=O)Nc3c(C)cccc3Cl)s2)cc(N2CCN(CCO)CC2)n1 [dasatinib]
In words: log2 fold change of tryptic peptide abundance, ligand vs vehicle (limited proteolysis) (log2 ratio); higher = more trypsin-susceptible (destabilized). Particulars: ligand concentration: 5 uM; sample: K562 cleared lysate.
“PTGES3 (peptide sequence: HLNEIDLFHCIDPNDSK, peptide start residue: 49) (UniProt Q15185)”: the log2 fold change was 0.0971.
The figure for “RRS1 (peptide sequence: KTNLVWDEVSGQWRR, peptide start residue: 128) (UniProt Q15050)” is -1.84; for “UniProt Q16143 (peptide sequence: QGVTEAAEK, peptide start residue: 24)” it is 0.0684.
Under “UniProt Q15389 (peptide sequence: QSSLILHGADFSTK, peptide start residue: 415)” stands 0.371; under “UniProt Q15406 (peptide sequence: TCLICGDR, peptide start residue: 59)”, 0.22.
Under “CHD9 (peptide sequence: TQTSSFDIQK, peptide start residue: 1589) (UniProt Q3L8U1)” stands 0.578.
For the target “ACOX1 (peptide sequence: TSNHAIVLAQLITK, peptide start residue: 183) (UniProt Q15067)”, the log2 fold change amounted to 0.204.
Under “SUZ12 (peptide sequence: TFKVDDMLSK, peptide start residue: 131) (UniProt Q15022)” stands -0.74.
The figure for “TATDN3 (peptide sequence: SAGRPTINLLQEQGAEK, peptide start residue: 150) (UniProt Q17R31)” is -0.0126.
For the target “PWP2 (peptide sequence: HLEFYLLWTHK, peptide start residue: 815) (UniProt Q15269)”, the log2 fold change worked out at 0.233.
The figure for “RASA2 (peptide sequence: WFCLTSR, peptide start residue: 630) (UniProt Q15283)” is -0.562.
